Results reported in US8748104.
The exact form of at least one protein or probe is not confirmed. A negative result means that nothing was seen under these conditions.

Target: serum albumin (Homo sapiens) (UniProt P02768)
Assay: binding assay
Conditions: negative control in Luminex bead assay; room temperature, PBS washes; label: biotin; single-stranded DNA

Sequence | binding result
GGGATGGGGTGGGTGGCCAGCGATT [SEQ ID NO: 1 aptamer] | no binding
TTAGGGGTGGTGTGGTTGGCAATTC [SEQ ID NO: 2 aptamer] | no binding
